Results deposited as PubChem BioAssay AID504793 (Drosophila RNAi Screening Center, 2011).
In all, the deposit lists about 23,000 reagents; shown is an unselected part of those with a known target gene and a result. Of all reagents, 62 (0.27%) were called active. 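Calls come from follow-up tests whose scores are not deposited, so confirmed genes may have low counts here; counts are not normalised per plate.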 Raw values vary from plate to plate and are shown uncorrected. Names joined by + are all predicted targets of the reagent.

Screen: 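Whole-genome screen for parts of the DNA damage checkpoint at G2/M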 (primary screen)
System: Drosophila S2R+ cells
Reagent: long dsRNA against Drosophila genes, about 0.25 µg dsRNA per well
Timing: 4 days of dsRNA, then 4 hours of drug before read-out
Challenge: doxorubicin 0.5 µM for 4 hours to cause double-strand breaks, in cells also given a low, harmless dose of dsRNA against nbs to sensitise the assay
Detection: 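Mitotic index as the number of phospho-histone H3-positive cells in each well following doxorubicin, given as raw counts without normalisation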
Direction: mitotic cells: higher = more cells in mitosis, weaker G2 arrest
Rule for the call: 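a call needs confirmation in secondary tests, with other dsRNAs and a check of mitotic timing without damage, not just a high primary count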
Meaning of the calls: active = confirmed in follow-up tests; inactive = not confirmed

target	DRSC id	mitotic cells, replicate 1	mitotic cells, replicate 2	activity call
CG5342	DRSC15776	4		inactive
CG34175	DRSC00424	2		inactive
CG11029	DRSC02119	4		inactive
CG16985	DRSC08501	8		inactive
CG6144	DRSC02934	10		inactive
LSm3	DRSC15920	13		inactive
CG4017	DRSC02733	3		inactive
myd	DRSC15512	14		inactive
CG13838	DRSC14688	9	6	inactive
CG13838	DRSC29055	3		inactive
CG8738	DRSC07256	11		inactive
GEFmeso	DRSC06748	7		inactive
GEFmeso	DRSC06940	1		inactive
GEFmeso	DRSC21475	24		inactive
Npc2h	DRSC14297	4		inactive
CG4338	DRSC15564	6		inactive
CG4853	DRSC06898	8		inactive
CG4853	DRSC28240	6		inactive
Tim17a1	DRSC14184	5		inactive
CG7763	DRSC07043	7		inactive
CG32473	DRSC14352	2		inactive
CG32473	DRSC16446	9		inactive
sw	DRSC20388	18		inactive
Fkbp39	DRSC16667	6		inactive
Fkbp39	DRSC23792	3		inactive
CG7201	DRSC10786	10		inactive
CG5039	DRSC15703	5		inactive
CG5039	DRSC27367	5		inactive
CG32855	DRSC13131	19		inactive
RpL39	DRSC04651	6		inactive
CG12581	DRSC12206	5		inactive
CG12581	DRSC12207	2		inactive
CG6893	DRSC10742	4		inactive
Pgant7	DRSC19991	6		inactive
CG13930	DRSC08399	14		inactive
CG13930	DRSC28494	1		inactive
RpS15Ab + RpS15Aa	DRSC06129	3		inactive
RpS15Ab + RpS15Aa	DRSC19831	8		inactive
Phf5a	DRSC03261	25		inactive
form3	DRSC10195	4		inactive
form3	DRSC10297	2		inactive
form3	DRSC11024	3		inactive
Zasp66	DRSC08932	10		inactive
Zasp66	DRSC10631	10		inactive
Zasp66	DRSC10632	4		inactive

Reprinted from the listing, 4 entries:
target	DRSC id	mitotic cells, replicate 1	mitotic cells, replicate 2	activity call
CG12581	DRSC12206	5		inactive
CG12581	DRSC12207	2		inactive
CG6893	DRSC10742	4		inactive
Pgant7	DRSC19991	6		inactive
